In paper PMC4039008:
Results are given in words; binding and its absence hold for the method and conditions named. A result given as binding can be weak or reduced; the word gives no strength.

By UniProt entry, the sequences of proteins in these tests, tags left out. Where a name states a change or a piece, a line headed by the entry shows the natural chain unless it says otherwise.
UniProt I1HS28: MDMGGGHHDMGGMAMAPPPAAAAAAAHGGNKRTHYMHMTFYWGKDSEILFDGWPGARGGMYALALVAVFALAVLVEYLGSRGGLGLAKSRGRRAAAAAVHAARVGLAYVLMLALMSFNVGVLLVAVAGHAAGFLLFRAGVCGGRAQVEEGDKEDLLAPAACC
UniProt I1IQG8: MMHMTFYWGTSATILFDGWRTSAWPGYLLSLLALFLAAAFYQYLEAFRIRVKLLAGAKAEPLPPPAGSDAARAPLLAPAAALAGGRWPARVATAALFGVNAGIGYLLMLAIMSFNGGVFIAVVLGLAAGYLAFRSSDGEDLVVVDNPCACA
UniProt I1GT99: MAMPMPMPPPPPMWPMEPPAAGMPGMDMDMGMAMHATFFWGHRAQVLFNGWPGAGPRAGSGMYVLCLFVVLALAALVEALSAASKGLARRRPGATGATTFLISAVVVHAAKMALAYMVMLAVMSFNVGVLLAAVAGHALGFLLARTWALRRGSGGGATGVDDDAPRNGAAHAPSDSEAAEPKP

Assays:
[1] = target: BdCOPT3 (Brachypodium distachyon) (UniProt I1HS28); test: two-hybrid; split-ubiquitin membrane yeast two-hybrid (MYTH); bait COPT-Cub-PLV in THY.AP4, prey COPT-NubG in THY.AP5; diploid cells, 2 days of growth on SC medium lacking adenine and histidine; verified by beta-galactosidase assay
[2] = target: BdCOPT4 (Brachypodium distachyon) (UniProt I1IQG8); test: as above

Substance | binding [1] | binding [2]
BdCOPT1 (from UniProt I1GT99) | binds | binds
BdCOPT3 (from UniProt I1HS28) |  | binds
